Experimental findings from PubChem BioAssay AID1347426 (Functional Genomics Laboratory (NCATS/FGL), 2020) are described below.

The campaign covered roughly 31,000 sequences. About 1,400 (4.5%) were called active.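 How the source made its calls: active means median seed-adjusted z-score above 1 or below -1; inactive means the rest.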 This is one part of the list.

This assay can be described thus: Novel Modifiers of Survival Motor Neuron (SMN) Protein: Gene Identification via Genome-wide siRNA Screen.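 Further: luminescence tracks full-length SMN protein made from the SMN2 reporter.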 The note with it: HEK293T SMN2-luciferase reporter, siRNA knockdown, 72 h; actives lie on both sides. The method, boiled down: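 HEK293T cells stably carrying an SMN2 promoter/splicing cassette–luciferase reporter were reverse-transfected with 1 pmol siRNA per well (druggable-genome library, 3 siRNAs per gene) and grown 72 h at 37 °C. Luminescence, normalized to negative-control siRNA and log10-transformed, was scored as MAD.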
A general note: Reporter assays use an easily measured gene product as a stand-in for the process of interest.
As for GGACCACAGACAUAGUAGATT against NCOA5, the median seed-adjusted z-score is inactive: 0.947. With GGUCCGUUGUCCAUCACAATT against UBAC2 the figure was inactive: 0.611; with GCCUCACAGGGAUCUUGAATT against PLUNC, inactive: 0.254; with GCUCGGUAUUGAGGAAGUATT against NLN, inactive: 0.248. With GGAGCUCUCUUUACGAGAATT against SHROOM3 the figure was inactive: 0.779; with AGCUUUUCUUGAGAGCUCATT against YY2, inactive: 0.363. On to GCAUAUUUCAGUUUGUGUATT against SSX5, for which the median seed-adjusted z-score was inactive: -0.0517.

GACACUCACUGCUAAGUUUTT against KIF21B: the median seed-adjusted z-score was inactive: 0.934.

For the sequence GUAUCUAAGAAAUUGAAAATT against ZNF575, the median seed-adjusted z-score was inactive: 0.458.

As for CUCUUAUAGUUGAUCGUGATT against ATAD2B, the median seed-adjusted z-score was inactive: 0.0192.

On to GGCUUGAACCUUCAAAGCUTT against GATA1, for which the median seed-adjusted z-score is inactive: 0.371. For GCUCCUGUUUUAUACUGCUTT against TIPARP, the median seed-adjusted z-score was inactive: 0.372. With AGAUGGUAGUAGAGAAGCATT against WNT3 the figure was inactive: -0.839; with CAACUACUCCGAGGCAGAATT against EPN3, inactive: 0.184. The same measure for GCAAGAUCAUGGUUCUGGUTT against GRIN2C: inactive: -0.3; for CGUUUUGCCUCUCCAAAAATT against MSC: inactive: -0.208. The same measure for CGCAAUAACUGUUUGGUAUTT against EGLN1: active: 2.05. For the sequence GGAGAAGGAUGGAACUCUUTT against SPATA21, the median seed-adjusted z-score is active: -1.03. With AGAAGGACGUGUCCAAGGATT against FOXC2 the figure was inactive: -0.792; with GAUUGUCUUUGUCAUCUCATT against CLDN6, inactive: -0.281; with GUACCAGACUUACACGGUUTT against MCF2L, inactive: -0.624. In the case of AGAGCUUGUUGGACCUGAATT against KLF9, the median seed-adjusted z-score is inactive: 0.767.

Regarding GCUCCUAUCAACCCAAGUATT against WISP1, the median seed-adjusted z-score is inactive: -0.0121. With GAACGAUGAGGAGAACGAATT against PPWD1 the figure was inactive: -0.341; with GUAACCAAGCGAUACAGAUTT against RAE1, inactive: 0.929. Regarding GGUCCGAUGUUACGUCUAATT against TIGD4, the median seed-adjusted z-score was inactive: -0.553. The same measure for GAAUGCUACAGUCAAGUUUTT against CDC5L: inactive: -0.628; for UGACACCAGCCAAAGCGGATT against ZXDA: inactive: -0.0748. With AGGUCUGCAUUGUACAGAATT against STK32A the figure was inactive: 0.052; with CAACUUCCGUAAUUAGGAATT against MCL1, inactive: 0.225; with GAGGUAACAUAUUCCCGAATT against BRF2, inactive: -0.00969. The same measure for GAGUCCACGUGUACUAUUUTT against SULT1E1: inactive: 0.509; for GGACCAGCGCAAUACACUATT against PLCD1: inactive: -0.0473. GAUUCAAGGAAGUCACUAATT against TBX19: the median seed-adjusted z-score is inactive: 0.327. The same measure for GAGCUGGAAGUAUCCGAAATT against PARN: inactive: -0.0061.

With GCUACUACUUUGAUUACAATT against PSMD8, the median seed-adjusted z-score was inactive: 0.0952.

Consider GCAAAAUUGAGAACCACGATT against PKLR, for which the median seed-adjusted z-score is inactive: 0.587. The same measure for GCUUCCUCCUAUAUACUAATT against PNLIP: inactive: 0.385; for GCACUUUCGUUUCAUCAUATT against TAF6L: inactive: 0. The same measure for GUGCAAUGGUUAACCCUAUTT against UBR3: inactive: -0.894.

For GCAGGGUAUUUGUAAAGAUTT against BCL11A, the median seed-adjusted z-score is inactive: 0.297. With CAGCACUAUUAGACAGGAATT against ZBTB40, the median seed-adjusted z-score is inactive: 0.187. On to GAAGAGCAGUGUACCAUCATT against STARD8, for which the median seed-adjusted z-score is inactive: -0.135.

Regarding GAAUAUGCCUUGAUAGUUATT against ZFP36L2, the median seed-adjusted z-score was inactive: -0.0485.

On to GACCAGAUGUGGAUGUAAATT against MIB1, for which the median seed-adjusted z-score is inactive: 0.

Turning to GCGGUUACAUGGGACUGGATT against RBPJL, the median seed-adjusted z-score is inactive: 0.373. The same measure for GAACUGAUAUCUGAAGAGATT against MLPH: active: -1.2; for GACCAGGUGUUUGUCCUGATT against ARHGDIG: inactive: 0.227; for GAGUAUAGUUUGACUGUAATT against PCDH18: inactive: -0.132.

On to AGAUGAAACUUCUACUGAATT against POLR2H, for which the median seed-adjusted z-score was active: -2.74. As for GGCUCAAUGUGGACUACAATT against HS3ST1, the median seed-adjusted z-score was active: 1.21. On to CCAGCUAUUUGGUGAUGUUTT against LIMS1, for which the median seed-adjusted z-score is inactive: -0.313. Turning to GGCUCUUCUAAGUUCCCGATT against PPP1R15B, the median seed-adjusted z-score is inactive: -0.407. With GGAAUAGACUCCUUCGUGATT against PRTN3, the median seed-adjusted z-score is inactive: -0.49. Regarding CAGAGAUCCCGGUACAUGATT against SEC24C, the median seed-adjusted z-score is inactive: 0.163.

For the sequence GCACUGGACUUCAAGCGAATT against PTH1R, the median seed-adjusted z-score is inactive: -0.521. The same measure for CGUCCCUGCUCAAAACCAATT against RNF39: inactive: 0.297; for CCAAUAAGCUCAUACAUCUTT against OMD: inactive: 0; for CACUCUUUGUGGACCACUATT against SLC30A5: inactive: 0.401.

GCAUAGACUUCAGCAAGCATT against PRMT7: the median seed-adjusted z-score was inactive: 0.204. The same measure for UGUUGUACCUCUAAUGUCATT against GPR172B: inactive: 0.184; for GCAACUGUAUUGAUAUCAATT against FBLN1: inactive: 0.518; for GGACGCAGGUUUAACUUCUTT against PARL: inactive: -0.0659. The same measure for GGAAAUAUGCGGCUACGGATT against NADSYN1: inactive: 0.217. Regarding GCUGGUACAUAUCCUCGUATT against ARHGAP5, the median seed-adjusted z-score was inactive: -0.359.

Regarding GCAACUUGUGAAUCUAGGATT against VCAM1, the median seed-adjusted z-score is inactive: 0.19. With CUGACGCAGAUGAACCGAATT against DSG1 the figure was inactive: 0.187; with GGAAAGAACAUCAAGAUUATT against PKM2, inactive: -0.0312; with GGACAUACGCUGACAACCATT against PLCE1, inactive: 0.597. Consider CCUUGUUUAUCAUAAGGGATT against ZNF613, for which the median seed-adjusted z-score was inactive: -0.189.

For the sequence AGAUUCUGGUGGAACUGGATT against ZMYND17, the median seed-adjusted z-score is inactive: -0.00314. With ACGUGAACCUGCAGCAGAATT against HOXC13, the median seed-adjusted z-score is inactive: -0.318. The same measure for GUCUGAAUGGUAUGAGUUATT against SPAG16: inactive: -0.0252. With CGACAAUGCGGUCAACCUUTT against CD28 the figure was inactive: -0.993. With GCAAUGAGAGAAUACUAUATT against SMPDL3A the figure was inactive: 0.49.

Take GCAUCAACAAUAUCCGGGATT against FARSA: the median seed-adjusted z-score was inactive: -0.158. In the case of CAUCGGCAAUGGGAUUAUUTT against USP36, the median seed-adjusted z-score was inactive: -0.147. With CAUCUGUGGUUGUACCAGATT against EXT2, the median seed-adjusted z-score was inactive: -0.127. With CAACAGCUCUAGGACUCAATT against SFXN1, the median seed-adjusted z-score was inactive: -0.746. The same measure for ACAAAUCACUGGUGAACAATT against RHOD: inactive: 0; for CAUUACUCCUCAACAGGUATT against MPP6: inactive: -0.625; for CUCUCUUCCGAAUUUGUAATT against ZNF347: inactive: 0. With GGUCAUUUUCGUGGAGAAATT against NFATC1, the median seed-adjusted z-score was inactive: 0.00712.

Regarding AGAACACGGUGGAUAAACUTT against SLC8A2, the median seed-adjusted z-score was inactive: 0. For the sequence CGACUAGUGUCAGAAAUCUTT against RUFY1, the median seed-adjusted z-score was inactive: 0.119.

Turning to CAGCUGCGUUAAUCCGUUUTT against AGTR2, the median seed-adjusted z-score was inactive: 0.204.

With AGAGGUACCUGGAUUUCGATT against CYP46A1, the median seed-adjusted z-score is inactive: -0.00752.

Consider CAUUCAAGUUUAAGCUCCATT against ERF, for which the median seed-adjusted z-score is inactive: -0.0288.

Take GACCAUUCGCGAUUUAGAATT against MYLK: the median seed-adjusted z-score is inactive: 0.0226. As for GAUCCACAGAGGAAAGGAATT against CYTH1, the median seed-adjusted z-score was inactive: 0.348. With GAUAUAUCCUGUCAAGAAATT against GTDC1 the figure was inactive: 0.2.

On to AAGGAAACCAGGUCCAUCATT against PHKG2, for which the median seed-adjusted z-score was inactive: -0.371. On to GGAUCAAGCUCACAAGGGATT against WDR36, for which the median seed-adjusted z-score was inactive: 0.00836. With GGAUUUUUGAUGUUCGGUUTT against AOC2 the figure was inactive: 0; with CCAUCUAGCUUAUCGAUAUTT against DYRK3, inactive: 0.358. For AAAUCAGUUUAACACCUUATT against ANK1, the median seed-adjusted z-score is inactive: -0.282.

With GGUGAAUCAUUUGAACUGATT against RCL1, the median seed-adjusted z-score is inactive: 0.0807. With GGACCAAACAACUCGAGUATT against MED12L the figure was inactive: -0.0903. With CCAUCUUGCAAACCUAUAUTT against PDE7B the figure was inactive: 0.0616; with GCAACAUGCAGAUAGGUUATT against PHF14, inactive: 0.354. As for CCAGCUUCCUGUAAGAGCATT against LRIG1, the median seed-adjusted z-score was inactive: 0.102. In the case of AGAUAGAAGGGACACCAUUTT against NDUFB3, the median seed-adjusted z-score is inactive: -0.00982. Take CCACGAACAAUAAUCCCAATT against KCNA3: the median seed-adjusted z-score was inactive: 0.213.

As to GCCUGAACCGAGUAGAAGATT against KCNQ1, the median seed-adjusted z-score is inactive: -0.0525.

As for CCCAGGAAGUUCUACUACATT against HS6ST1, the median seed-adjusted z-score is inactive: -0.436. The same measure for CCACUGAAUAUGUGCAGAATT against FBP2: inactive: 0; for GCAUCCGGAUUCUUGAUGATT against PGK2: inactive: -0.127. Consider CAAGGUUGAUGGGCGUGUATT against HNRNPA3, for which the median seed-adjusted z-score was inactive: 0.915.
